Data from the supplement of paper PMC6078165.

Tested on: MDAMB468
Assay: relative JC-1 red fluorescence (viability) vs pre-drug, coculture with fibroblast (fraction); higher = more viable cancer cells
Protocol: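 JC-1 labelled TNBC cells cocultured 1:1 (1,500 cells each) with CellTrace Violet stained primary or stromal fibroblasts in 384-well plates in FluoroBrite medium, treated with one of 42 anticancer drugs at 0.1, 1, 10 or 100 uM. JC-1 red fluorescence (mitochondrial integrity in cancer cells only) was read by plate reader every 8 h for 72 h. Values are normalised to each well's pre-drug value. The stock of one drug was tenfold lower, so its dose labels may be too high.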

CCCCCOC(=O)Nc1nc(=O)n([C@@H]2O[C@H](C)[C@@H](O)[C@H]2O)cc1F [Capecitabine]
relative JC-1 red fluorescence
Details	8 h	16 h	24 h	32 h	40 h	48 h	56 h	64 h	72 h
0.1 µM, coculture fibroblast: C12385	0.854	0.7901	0.731	0.663	0.601	0.577	0.538	0.51	0.488
0.1 µM, coculture fibroblast: H6013	0.867	0.876	0.83	0.82	0.78	0.784	0.759	0.745	0.692
0.1 µM, coculture fibroblast: H6019	0.841	0.813	0.787	0.74	0.698	0.671	0.627	0.588	0.559
0.1 µM, coculture fibroblast: H6076	0.957	0.924	0.951	0.902	0.8219	0.791	0.747	0.719	0.735
0.1 µM, coculture fibroblast: H6231	0.83682	0.824	0.8799	0.849	0.7912	0.75522	0.6964	0.6562	0.63281
0.1 µM, coculture fibroblast: HADF	0.875	0.8371	0.7809	0.76	0.71172	0.706	0.6633	0.644	0.606
0.1 µM, coculture fibroblast: HCFa	0.856	0.822	0.753	0.7214	0.6542	0.643	0.597	0.549	0.512
0.1 µM, coculture fibroblast: HCPF	0.874	0.909	0.896	0.864	0.802	0.767	0.706	0.694	0.673
0.1 µM, coculture fibroblast: HHSteC	0.858	0.808	0.758	0.709	0.66	0.654	0.596	0.565	0.519
0.1 µM, coculture fibroblast: HMF	0.827	0.9872	0.911	0.859	0.815	0.783	0.729	0.731	0.723
0.1 µM, coculture fibroblast: HPFa	0.93	0.871	0.833	0.783	0.748	0.739	0.67	0.631	0.553
0.1 µM, coculture fibroblast: HUF	0.899	0.7942	0.72693	0.6626	0.611	0.581	0.539	0.514	0.487
0.1 µM, coculture fibroblast: Hs5	0.768	0.812	0.9634	0.94	0.855	0.827	0.773	0.721	0.729
0.1 µM, coculture fibroblast: Hs27A	0.8593	0.813	0.748	0.731	0.659	0.652	0.606	0.576	0.542
0.1 µM, coculture fibroblast: Hs343T	0.877	0.9529	0.8948	0.8507	0.7862	0.7497	0.6902	0.663	0.635
0.1 µM, coculture fibroblast: WS1	0.838	0.766	0.712	0.653	0.598	0.564	0.535	0.507	0.498
1 µM, coculture fibroblast: C12385	0.894	0.82	0.772	0.727	0.691	0.69	0.649	0.629	0.624
1 µM, coculture fibroblast: H6013	0.909	0.852	0.812	0.803	0.782	0.797	0.775	0.771	0.715
1 µM, coculture fibroblast: H6019	0.831	0.796	0.759	0.699	0.6514	0.6373	0.59391	0.5683	0.5441
1 µM, coculture fibroblast: H6076	0.959	0.937	0.9055	0.911	0.853	0.841	0.8	0.789	0.836
1 µM, coculture fibroblast: H6231	0.8482	0.885	0.852	0.829	0.781	0.74	0.6867	0.6578	0.6448
1 µM, coculture fibroblast: HADF	0.942	0.871	0.83	0.825	0.8	0.808	0.77	0.773	0.726
1 µM, coculture fibroblast: HCFa	0.9095	0.843	0.794	0.762	0.7	0.694	0.639	0.597	0.537
1 µM, coculture fibroblast: HCPF	0.8858	0.937	0.823	0.807	0.745	0.715	0.666	0.648	0.636
1 µM, coculture fibroblast: HHSteC	0.9299	0.858	0.812	0.783	0.739	0.735	0.677	0.651	0.594
1 µM, coculture fibroblast: HMF	0.873	0.94	0.864	0.848	0.781	0.767	0.727	0.707	0.697
1 µM, coculture fibroblast: HPFa	0.9376	0.8557	0.825	0.765	0.735	0.723	0.66183	0.6372	0.5625
1 µM, coculture fibroblast: HUF	0.934	0.861	0.819	0.783	0.744	0.736	0.7	0.696	0.675
1 µM, coculture fibroblast: Hs5	0.781	0.9132	0.885	0.859	0.8	0.781	0.761	0.735	0.754
1 µM, coculture fibroblast: Hs27A	0.899	0.862	0.814	0.821	0.768	0.762	0.725	0.703	0.64
1 µM, coculture fibroblast: Hs343T	0.914	0.983	0.914	0.876	0.809	0.786	0.73	0.703	0.682
1 µM, coculture fibroblast: WS1	0.915	0.79	0.744	0.691	0.652	0.63	0.615	0.591	0.588
10 µM, coculture fibroblast: C12385	0.9006	0.801	0.764	0.705	0.646	0.627	0.582	0.541	0.517
10 µM, coculture fibroblast: H6013	0.887	0.8604	0.8174	0.8043	0.7797	0.794	0.7727	0.7596	0.7066
10 µM, coculture fibroblast: H6019	0.8393	0.811	0.784	0.74	0.693	0.674	0.637	0.593	0.568
10 µM, coculture fibroblast: H6076	0.9342	0.7602	0.924	0.894	0.822	0.802	0.758	0.739	0.751
10 µM, coculture fibroblast: H6231	0.836	0.819	0.916	0.863	0.822	0.783	0.717	0.677	0.659
10 µM, coculture fibroblast: HADF	0.9069	0.841	0.778	0.768	0.705	0.691	0.644	0.625	0.581
10 µM, coculture fibroblast: HCFa	0.875	0.828	0.777	0.747	0.686	0.687	0.642	0.605	0.571
10 µM, coculture fibroblast: HCPF	0.879	0.9919	0.89599	0.838	0.775	0.739	0.672	0.65534	0.6267
10 µM, coculture fibroblast: HHSteC	0.908	0.859	0.815	0.778	0.737	0.733	0.672	0.655	0.608
10 µM, coculture fibroblast: HMF	0.832	0.882	0.937	0.903	0.853	0.827	0.77	0.745	0.721
10 µM, coculture fibroblast: HPFa	0.9184	0.885	0.848	0.799	0.754	0.751	0.681	0.65	0.582
10 µM, coculture fibroblast: HUF	0.919	0.818	0.79	0.741	0.709	0.6913	0.654	0.65	0.64
10 µM, coculture fibroblast: Hs5	0.859	0.892	0.931	0.897	0.8267	0.795	0.753	0.7088	0.724
10 µM, coculture fibroblast: Hs27A	0.873	0.81322	0.761	0.7444	0.689	0.681	0.6401	0.6093	0.56
10 µM, coculture fibroblast: Hs343T	0.859	0.8331	0.929	0.8657	0.786	0.748	0.684	0.66	0.615
10 µM, coculture fibroblast: WS1	0.836	0.763	0.707	0.638	0.585	0.544	0.513	0.476	0.457
100 µM, coculture fibroblast: C12385	0.91459	0.824	0.805	0.754	0.709	0.693	0.648	0.621	0.608
100 µM, coculture fibroblast: H6013	0.907	0.8802	0.8519	0.8574	0.857	0.8687	0.8526	0.8483	0.8016
100 µM, coculture fibroblast: H6019	0.816	0.788	0.751	0.699	0.668	0.654	0.617	0.589	0.566
100 µM, coculture fibroblast: H6076	0.94	0.963	0.91	0.899	0.833	0.818	0.786	0.774	0.814
100 µM, coculture fibroblast: H6231	0.872	0.913	0.854	0.8729	0.8076	0.786	0.735	0.709	0.71
100 µM, coculture fibroblast: HADF	0.93387	0.868	0.82	0.82	0.772	0.755	0.709	0.691	0.65
100 µM, coculture fibroblast: HCFa	0.883	0.837	0.785	0.771	0.714	0.711	0.672	0.642	0.6026
100 µM, coculture fibroblast: HCPF	0.864	0.958	0.864	0.851	0.7982	0.762	0.724	0.708	0.682
100 µM, coculture fibroblast: HHSteC	0.927	0.8679	0.848	0.824	0.809	0.816	0.763	0.758	0.708
100 µM, coculture fibroblast: HMF	0.839	0.937	0.859	0.828	0.78	0.763	0.708	0.683	0.648
100 µM, coculture fibroblast: HPFa	0.982	0.917	0.901	0.853	0.84488	0.846	0.786	0.766	0.687
100 µM, coculture fibroblast: HUF	0.967	0.867	0.8392	0.781	0.744	0.7189	0.67828	0.663	0.647
100 µM, coculture fibroblast: Hs5	0.872	0.947	0.913	0.895	0.833	0.8	0.767	0.741	0.766
100 µM, coculture fibroblast: Hs27A	0.8854	0.839	0.776	0.77	0.702	0.688	0.645	0.614	0.572
100 µM, coculture fibroblast: Hs343T	0.914	0.949	0.877	0.849	0.785	0.771	0.727	0.705	0.69
100 µM, coculture fibroblast: WS1	0.876	0.803	0.75	0.678	0.632	0.591	0.554	0.516	0.495

The reference is the same well before dosing, and untreated signal decays as well.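 Fibroblast labels name human fibroblasts: mostly primary ones from tissues such as uterus (C12385, HUF), lung (H6013), bone (Hs27A), adrenal (HADF) and skin (WS1), plus mammary HMF and breast cancer-associated Hs343T. The cancer cells are basal-like or mesenchymal-like triple-negative breast cancer lines. The paper calls a changed response a hit when it shifts by more than 3x the replicate standard deviation. The tissue of the other fibroblasts is not given here.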
